The results in this text go back to paper PMC12221982.

Results are given in words; binding and its absence hold for the method and conditions named. Some entries that bind do so weakly or less than the wild type.

This assay addresses T1, FlgL hook-filament junction protein (C. jejuni) (C. jejuni).
T1 sequence: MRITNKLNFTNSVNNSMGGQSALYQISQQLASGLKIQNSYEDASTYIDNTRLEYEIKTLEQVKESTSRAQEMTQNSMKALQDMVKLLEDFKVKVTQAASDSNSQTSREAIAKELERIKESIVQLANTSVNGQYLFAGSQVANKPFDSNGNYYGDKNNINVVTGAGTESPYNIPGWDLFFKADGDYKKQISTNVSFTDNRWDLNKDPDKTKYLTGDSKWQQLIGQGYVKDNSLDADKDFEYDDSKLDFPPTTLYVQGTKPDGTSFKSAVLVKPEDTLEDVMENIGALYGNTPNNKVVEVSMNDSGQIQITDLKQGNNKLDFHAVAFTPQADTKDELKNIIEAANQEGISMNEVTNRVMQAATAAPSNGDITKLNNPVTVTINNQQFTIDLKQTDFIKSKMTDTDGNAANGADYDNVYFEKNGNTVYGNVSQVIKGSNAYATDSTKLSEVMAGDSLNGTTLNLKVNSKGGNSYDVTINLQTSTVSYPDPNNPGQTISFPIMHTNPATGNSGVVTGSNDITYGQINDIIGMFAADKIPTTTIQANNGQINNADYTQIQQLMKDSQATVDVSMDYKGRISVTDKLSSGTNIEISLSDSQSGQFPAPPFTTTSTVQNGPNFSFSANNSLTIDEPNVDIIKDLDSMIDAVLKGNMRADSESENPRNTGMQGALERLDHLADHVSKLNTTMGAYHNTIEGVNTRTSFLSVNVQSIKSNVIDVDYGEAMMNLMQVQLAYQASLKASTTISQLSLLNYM
Description: cryo-EM structure; single-particle cryo-EM of flagellar hook tips on C. jejuni ΔflhG ΔflaAB minicells (no filament); cap-HFJ map at 6.5 Å; model of 11 FlgK, 11 FlgL and 5 FliD fitted as rigid bodies and refined.

B1: FlgK hook-filament junction protein (C. jejuni) (protein, UniProt Q0P8E9 1-608)
chain: MGIFGTLYTGVTGLKASEVQIATTGNNISNANATFYTRQRVVQTTNGYITTGGVQVGTGTAVESIVRLHDEYSYYKLKGASTQLEYTKYMASTLQEIAQRFPDLQNTGILQDLENYNKAWNDFASNPNENATKIALVKASQTLTESVNNTFATLDKIQKKVNDDIKNTVDEINRIGEEIATINKQIYGQEALPTEHANELRDRRDELELTLSKLVSAVASKNEINQDNRLDTTITDPGHQYNLSIEGFSIVDGINFHPLKLDYDDKNKSYSIYYETPDEKVRDLTAKISGGQLGAQLDLRGRNYSKSEGKYEDGIIQGYMDSLDTFAKTMINETNNLYASSAKSSVTSDYLSGLKGDIPLVNYDRTIQPGSFDIVIYDDKGDKKLTKTITIDVNTTMNDIMRQINANTDDNDNKNSNDDVDDHINASFSYDAKTGDGLFQINAKSGFKVAIEDKGTNFAGAFSIGGFFSGTDASDMKVKDSILNDPSTVRASSNGVDSGNDMANKIIQLQYKKVNFYNEDGTIDNLTMEEYYRKLTGKIASDGENNNVVNSSNETLYNSVYSEYQSKSGVNTNEELAALIQYQSSYGAAAKIVSTVDQMLDTLLGLKS
Regarding B1, the binding entry is reported as “binds”.

B2: FliD filament cap protein (C. jejuni) (protein, UniProt Q9PHW6 1-642)
chain: MAFGSLSSLGFGSGVLTQDTIDKLKEAEQKARIDPYTKKIEENTTKQKDLTEIKTKLLSFQTAVSSLADATVFAKRKVVGSISDNPPASLTVNSGVALQSMNINVTQLAQKDVYQSKGLANDGGFVNAQLNGTADLTFFSNGKEYTVTVDKNTTYRDLADKINEASGGEIVAKIVNTGEKGTPYRLTLTSKETGEDSAISFYAGKKDSNGKYQKDINAEKIFDDLGWGLDVSASIDPDKDKKGYGIKDASLHIQTAQNAEFTLDGIKMFRSSNTVTDLGVGMTLTLNKTGEINFDVQQDFEGVTKAMQDLVDAYNDLVTNLNAATDYNSETGTKGTLQGISEVNSIRSSILADLFDSQVVDGTTEDANGNKVNTKVMLSMQDFGLSLNDAGTLSFDSSKFEQKVKEDPDSTESFFSNITKYEDINHTGEVIKTGSLSKYLNSNGGNTNGLEFKPGDFTIVFNNQTYDLSKNSDGTNFKLTGKTEEELLQNLANHINSKGIEGLKVKVESYNQNNVTGFRLNFSGDGSSDFSIKGDANILKELGLSDVNITSKPIEGKGIFSKLKATLQEMTGKDGSITKYDESLTNDIKSLNTSKDSTQAMIDTRYDTMANQWLQYESILNKLNQQLNTVTNMINAANNSNN
B2: the binding entry is given as “binds”.
